# Laboratory results from PubChem BioAssay (NCATS).
# Protein sequences, listed by entry. Tags and fused reporters are not part of them. Lines headed by an entry give the natural chain unless they say otherwise; changes in a name come on top.
# UniProt P50135: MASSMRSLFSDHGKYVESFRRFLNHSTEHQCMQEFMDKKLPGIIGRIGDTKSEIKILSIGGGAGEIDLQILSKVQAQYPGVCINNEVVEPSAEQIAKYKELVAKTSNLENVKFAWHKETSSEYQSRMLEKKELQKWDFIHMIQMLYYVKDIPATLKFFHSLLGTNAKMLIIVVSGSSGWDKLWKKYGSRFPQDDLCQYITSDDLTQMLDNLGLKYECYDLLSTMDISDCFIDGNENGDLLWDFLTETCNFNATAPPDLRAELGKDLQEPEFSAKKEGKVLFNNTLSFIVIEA
# UniProt P40261: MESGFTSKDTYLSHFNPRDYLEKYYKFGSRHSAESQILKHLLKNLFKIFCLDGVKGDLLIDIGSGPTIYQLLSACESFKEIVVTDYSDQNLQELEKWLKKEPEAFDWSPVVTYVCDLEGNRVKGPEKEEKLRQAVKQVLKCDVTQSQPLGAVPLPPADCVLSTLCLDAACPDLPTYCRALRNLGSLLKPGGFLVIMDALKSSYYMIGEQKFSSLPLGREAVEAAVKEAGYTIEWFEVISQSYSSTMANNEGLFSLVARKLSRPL
# Values joined by “and” are separate entries in the source; they are usually repeats but may differ in a detail not shown here. Equal entries are not always repeated. Some of the results follow. These are further read-outs of the screen, such as a control signal, another cell line or another target. No call is given for them. For part of these data: Compounds called inactive in the main read-out are mostly missing here. Potencies come from curve fits of mixed quality, noted in brackets.
# How the values were obtained:
# [1] = Validation of Assay for Modulators of Lamin A Splicing (AID 1459); conditions: Lamin A splicing dual RFP/GFP fluorescence reporter, ratio
# Outline: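 Splicing correction read as GFP (500-530 nm) over DsRed2 (575-640 nm) object intensity after 48 h compound exposure of reporter HeLa S3 clones (600 cells/well, 2% FBS medium); ancitabine and cycloheximide titrations, 0.5% DMSO as vehicle.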
# [2] = qHTS Assay for Lipid Storage Modulators (AID 1519); conditions: Drosophila S3 cells, BODIPY lipid droplet/cell ratio, laser cytometry, cells loaded with oleic acid
# Outline: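 Cells seeded at 5,000 per well were treated with compounds over a concentration series and loaded with oleic acid (400 uM, as added). Lipid droplet fluorescence (488 nm excitation, 500-530 nm channel) was read by laser-scanning cytometry and normalized to 20 uM Triacsin C.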
# [3] = qHTS Assay for Modulators of Human Peripheral Myelin Protein 22 (PMP22) Expression/Activity (AID 1967); conditions: Cell-based PMP22 reporter, dual-color luciferase ratio
# Outline: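 Readout is the corrected green/red luminescence ratio after 24 h compound exposure, normalised to untreated cells (0%). Engineered MSC80 mouse Schwann cells express green luciferase from the mouse Pmp22 promoter and red luciferase from EF-alpha as internal control.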
# [4] = qHTS Validation Assay to Find Inhibitors of Chronic Active B-Cell Receptor Signaling (AID 485345); conditions: ABC-DLBCL cells, chronic BCR signaling reporter
# Outline: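 TMD8 ABC-DLBCL cells stably carrying doxycycline-inducible IkappaBalpha–green luciferase fusion plus unfused red luciferase; compounds 46 uM to 3 nM, 4 h at 37C with doxycycline. Corrected green/red luminescence ratio normalized to 10 uM MG-132 and basal cell wells; curves fitted.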
# [5] = Nrf2 qHTS screen for inhibitors: Validation (AID 493153); conditions: A549 ARE-Fluc reporter, 18-24 h; AC50: CellTiter-Fluor fluorescence read, measured here: cytotoxicity CellTiter-Fluor AC50; viability change: measured here: cytotoxicity max response
# Outline: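 A549 cells carrying an ARE-driven firefly luciferase reporter, in 5% FBS OPTI-MEM, were treated with compounds in concentration-response for 18-24 h at 37°C. Viability was read by CellTiter-Fluor fluorescence, then Nrf2 activity by luciferase luminescence.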
# [6] = S16 Schwann cell PMP22 intronic element beta-lactamase assay (AID 624044); conditions: S16 rat Schwann cells, PMP22 element beta-lactamase FRET, 24 h
# Outline: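 Rat S16 Schwann cells with beta-Lac driven by a PMP22 intronic element, compound-treated 24 h at 37 °C. LiveBLAzer FRET B/G read: 460 nm normalized to potassium clavulanate vs DMSO; 535 nm FRET as viability; concentration-effect curves classified.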
# [7] = NCATS anti-infectives library activity on the primary C. elegans qHTS viability assay (AID 1745855); conditions: C. elegans worm area imaging
# Outline: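 Viability is taken from GFP fluorescence of PE254-GFP-FLuc C. elegans imaged by laser cytometry over 7 days. Ten L1 worms per well grow at 21 °C on TOP10 E. coli capsules with titrated compound; levamisole marks toxicity.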
# [8] = qHTS drug screen for cell cycle checkpoint inhibitors in PARPi-resistant BRCA-mutant ovarian cancer cell lines. (AID 1963452); conditions: PEO1/OlaR viability, CellTiter-Glo luminescence, 96 h
# Outline: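 PEO1, PEO4 and PEO1/OlaR ovarian cancer cells, 600 per well, exposed 96 h at 37C to a dilution series. Viability read by CellTiter-Glo luminescence, normalized to DMSO and empty wells; activity summarized as Z-AUC.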
# [9] = qHTS for identification of novel therapeutic agents for treatment of microphthalmiaassociated transcription factor (MiT) renal cell carcinoma (RCC) (AID 1963991); conditions: CellTiter-Glo, 48 h; for z-score: stronger effect = lower value;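 as to z-score: curves scaled with 100% = DMSO viability and 0% = empty wells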
# Outline: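 UOK109/UOK124/UOK145 (TFE3 fusions, three partners); 500 cells/well; MIPE v4.0, 1912 cpds, 11 conc.; 48 h, 37 C; CellTiter-Glo, 15 min RT; lum. Norm.: DMSO 100%, empty 0%.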
# [10] = molecular target: Histamine N-methyltransferase (Homo sapiens) (UniProt P50135); experiment: Confirmatory Screen for Target Class Profiling of Small Molecule Inhibitors of Methyltransferases (AID 1745852); conditions: MTase-Glo luminescence, SAH detection, recombinant enzyme; measured here: HNMT inhibition potency
# [11] = molecular target: Nicotinamide N-methyltransferase (Homo sapiens) (UniProt P40261); experiment: as above; conditions: MTase-Glo luminescence, SAH detection, recombinant enzyme; measured here: NNMT inhibition potency
# [12] = qHTS Validation Assay for Iinhibitors of HIV-1 Budding by Blocking the Interaction of PTAP/TSG101 (AID 485342); conditions: TSG101-PTAP binding, fluorescence polarization, 4-point titration; measured here: FITC channel readout
# Outline: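 Fluorescence polarization of 50 nM FITC-PTAP peptide bound to 10 uM Tsg101 binding domain was read after 20 min room-temperature incubation with compounds, in 10 mM HEPES pH 7.5, 0.15 M NaCl, 0.01% Tween 20.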
# [13] = measured here: cell count channel max response
# [14] = measured here: cell number channel AC50
# [15] = measured here: lipid (BODIPY) channel AC50
# [16] = measured here: lipid channel max response
# [17] = measured here: green reporter channel AC50, mouse Pmp22 promoter in mouse Schwann cells
# [18] = measured here: red reporter channel AC50, EF-alpha promoter control reporter in MSC80 mouse Schwann cells
# [19] = measured here: CBR control luciferase (viability counter)
# [20] = measured here: 460 nm blue channel
# [21] = measured here: PEO1 parental viability
# [22] = TFE3-RCC viability, measured here: UOK145 cell viability
# [23] = measured here: CBG/CBR ratio read-out
compound,measurement,setting,value
O=C1c2c(O)ccc(O)c2C(=O)c2c(NCCNCCO)ccc(NCCNCCO)c21,AC50,[1]; measured here: GFP channel,"20 µM [falling, partial curve, poor fit]"
same,AC50,[1]; measured here: RFP channel,"7.08 µM [falling, partial curve, poor fit]"
same,max response,[2]; [13],-24.1%
same,AC50,[2]; [14],"2.51 µM [falling, partial curve, poor fit]"
same,AC50,[2]; [15],"2.82 µM [falling, partial curve, poor fit]"
same,max response,[2]; [16],-24.8%
same,AC50,[3]; [17],"2.13 µM [falling, full curve]"
same,AC50,[3]; [18],"26.9 µM [falling, full curve]"
same,AC50,[4]; [19],"18.4 µM [falling, partial curve]"
same,AC50,[5],"14.6 µM [falling, partial curve, poor fit]"
same,viability change,[5],-45.5%
same,AC50,[6]; [20],"1.07 µM [falling, full curve]"
same,AC50,[6]; measured here: 530 nm viability channel,"12.6 µM [falling, single point]"
same,AC50,"[7]; day 7, measured here: worm number","11.5 µM [falling, partial curve, poor fit]"
same,AC50,"[7]; day 7, measured here: worm number, day 3","14.5 µM [falling, partial curve, poor fit]"
same,AC50,[8]; [21],"0.195 µM [falling, full curve]"
same,AC50,[8]; measured here: PEO4 viability,"0.389 µM [falling, full curve, poor fit]"
same,AC50,"[9]; TFE3-RCC viability, measured here: UOK124 cell viability","209 nM [falling, full curve]"
same,AC50,[9]; [22],"296 nM [falling, full curve]"
Cc1scc2c1N(C(=O)CN1CCN(C)CC1)c1ccccc1NC2=O,AC50,[1]; measured here: GFP channel,"5.62 µM [falling, full curve]"
same,AC50,[1]; measured here: RFP channel,"5.62 µM [falling, full curve]"
CC(=O)SC1CC2=CC(=O)CC[C@]2(C)C2CC[C@@]3(C)[C@@H](CC[C@@]34CCC(=O)O4)C12 (stereo not given in full),AC50,[1]; measured here: GFP channel,"11.2 µM [falling, partial curve]"
same,AC50,[1]; measured here: RFP channel,"11.2 µM [falling, partial curve]"
same,max response,[2]; [13],-30.3%
same,AC50,[2]; [14],"0.126 µM [falling, full curve, poor fit]"
same,AC50,[2]; [15],"0.141 µM [falling, full curve, poor fit]"
same,max response,[2]; [16],-30.7%
N=C(N)SCCc1cnc[nH]1,AC50,[1]; measured here: GFP channel,"8.91 µM [rising, partial curve, poor fit]"
same,AC50,[1]; measured here: RFP channel,"25.1 µM [falling, single point]"
same,max response,[2]; [13],9.92%
same,AC50,[2]; [14],"15.8 µM [rising, single point]"
same,AC50,[2]; [15],"20 µM [rising, single point]"
same,max response,[2]; [16],15.6%
same,IC50,[10],"15.3 µM [falling, partial curve]"
CNC(=O)[C@H]1O[C@@H](n2cnc3c(N)ncnc32)[C@H](O)[C@H]1O,AC50,[1]; measured here: GFP channel,"20 µM [falling, partial curve]"
same,AC50,[1]; measured here: RFP channel,"20 µM [falling, partial curve]"
CC(C)c1ccc2c(c1)c(SC(C)(C)C)c(CC(C)(C)C(=O)O)n2Cc1ccc(Cl)cc1,AC50,[1]; measured here: GFP channel,"11.2 µM [falling, partial curve]"
same,AC50,[1]; measured here: RFP channel,"11.2 µM [falling, partial curve]"
same,max response,[2]; [13],-42.8% and -55.1%
same,AC50,[2]; [14],"7.94 µM [falling, full curve, poor fit]"
same,AC50,[2]; [15],"3.16 µM [rising, single point] and 7.94 µM [falling, full curve, poor fit]"
same,max response,[2]; [16],-58.5% and -66.6%
same,AC50,[4]; [23],"23.1 µM [falling, partial curve]"
same,AC50,[4]; [19],"20.6 µM [falling, single point]"
same,AC50,[5],"14.6 µM [falling, partial curve, poor fit]"
same,viability change,[5],-34.3%
same,IC50,[11],"21.7 µM [falling, partial curve]"
same,AC50,[8]; [21],"27.5 µM [falling, single point]"
same,AC50,[8]; measured here: PEO4 viability,"15.5 µM [falling, single point]"
same,z-score,"[9]; TFE3-RCC UOK109 viability, measured here: UOK109 Z-AUC",0.305
same,z-score,"[9]; TFE3-RCC viability, measured here: UOK124 Z-AUC",0.22
same,z-score,"[9]; TFE3-RCC viability, measured here: UOK145 Z-AUC",-0.0575
same,AC50,[9]; [22],"23500 nM [falling, partial curve]"
CC(=O)[C@]1(O)Cc2c(O)c3c(c(O)c2[C@@H](O[C@H]2C[C@H](N)[C@H](O)[C@H](C)O2)C1)C(=O)c1ccccc1C3=O,AC50,[1]; measured here: GFP channel,"0.631 µM [falling, full curve]"
same,AC50,[1]; measured here: RFP channel,"0.251 µM [falling, full curve]"
same,max response,[2]; [13],-98.4%
same,AC50,[2]; [14],"17.8 µM [falling, full curve, poor fit]"
same,AC50,[2]; [15],"7.94 µM [falling, full curve, poor fit]"
same,max response,[2]; [16],-105%
same,AC50,[3]; [17],"0.757 µM [falling, full curve]"
same,AC50,[3]; [18],"0.426 µM [falling, full curve]"
same,AC50,[12],"7.94 µM [falling, full curve]"
same,AC50,[4]; [19],"3.26 µM [falling, full curve]"
same,AC50,[6]; [20],"0.0631 µM [falling, full curve]"
same,AC50,[8]; [21],"2.19 µM [falling, full curve]"
same,AC50,[8]; measured here: PEO4 viability,"1.95 µM [falling, partial curve, poor fit]"
Cn1cc(C2=C(c3ccc(Cl)cc3Cl)C(=O)NC2=O)c2ccccc21,AC50,[1]; measured here: GFP channel,"14.1 µM [rising, partial curve]"
same,AC50,[1]; measured here: RFP channel,"14.1 µM [rising, partial curve]"
same,max response,[2]; [13],69.4% and 36.7%
same,AC50,[2]; [14],"2.82 µM [rising, full curve]"
same,AC50,[2]; [15],"0.708 µM [rising, full curve, poor fit]"
same,max response,[2]; [16],30.4% and 34.7%
same,AC50,[3]; [17],"42.6 µM [falling, partial curve]"
same,AC50,[4]; [23],"13 µM [falling, partial curve, poor fit]"
same,AC50,[4]; [19],"4.61 µM [falling, single point]"
